No constants are given. Whether binding was seen depends on the method and setting. Some entries that bind do so weakly or less than the wild type.
Target: Hrp1 (affinity purification experiments with Hrp3) (S. pombe) (UniProt Q9US25)
Assay: affinity purification (co-purification); preliminary experiments; manuscript in preparation; no details given

Sequences of proteins named here, by UniProt entry; tags and fusion partners are left off.
UniProt Q9US25: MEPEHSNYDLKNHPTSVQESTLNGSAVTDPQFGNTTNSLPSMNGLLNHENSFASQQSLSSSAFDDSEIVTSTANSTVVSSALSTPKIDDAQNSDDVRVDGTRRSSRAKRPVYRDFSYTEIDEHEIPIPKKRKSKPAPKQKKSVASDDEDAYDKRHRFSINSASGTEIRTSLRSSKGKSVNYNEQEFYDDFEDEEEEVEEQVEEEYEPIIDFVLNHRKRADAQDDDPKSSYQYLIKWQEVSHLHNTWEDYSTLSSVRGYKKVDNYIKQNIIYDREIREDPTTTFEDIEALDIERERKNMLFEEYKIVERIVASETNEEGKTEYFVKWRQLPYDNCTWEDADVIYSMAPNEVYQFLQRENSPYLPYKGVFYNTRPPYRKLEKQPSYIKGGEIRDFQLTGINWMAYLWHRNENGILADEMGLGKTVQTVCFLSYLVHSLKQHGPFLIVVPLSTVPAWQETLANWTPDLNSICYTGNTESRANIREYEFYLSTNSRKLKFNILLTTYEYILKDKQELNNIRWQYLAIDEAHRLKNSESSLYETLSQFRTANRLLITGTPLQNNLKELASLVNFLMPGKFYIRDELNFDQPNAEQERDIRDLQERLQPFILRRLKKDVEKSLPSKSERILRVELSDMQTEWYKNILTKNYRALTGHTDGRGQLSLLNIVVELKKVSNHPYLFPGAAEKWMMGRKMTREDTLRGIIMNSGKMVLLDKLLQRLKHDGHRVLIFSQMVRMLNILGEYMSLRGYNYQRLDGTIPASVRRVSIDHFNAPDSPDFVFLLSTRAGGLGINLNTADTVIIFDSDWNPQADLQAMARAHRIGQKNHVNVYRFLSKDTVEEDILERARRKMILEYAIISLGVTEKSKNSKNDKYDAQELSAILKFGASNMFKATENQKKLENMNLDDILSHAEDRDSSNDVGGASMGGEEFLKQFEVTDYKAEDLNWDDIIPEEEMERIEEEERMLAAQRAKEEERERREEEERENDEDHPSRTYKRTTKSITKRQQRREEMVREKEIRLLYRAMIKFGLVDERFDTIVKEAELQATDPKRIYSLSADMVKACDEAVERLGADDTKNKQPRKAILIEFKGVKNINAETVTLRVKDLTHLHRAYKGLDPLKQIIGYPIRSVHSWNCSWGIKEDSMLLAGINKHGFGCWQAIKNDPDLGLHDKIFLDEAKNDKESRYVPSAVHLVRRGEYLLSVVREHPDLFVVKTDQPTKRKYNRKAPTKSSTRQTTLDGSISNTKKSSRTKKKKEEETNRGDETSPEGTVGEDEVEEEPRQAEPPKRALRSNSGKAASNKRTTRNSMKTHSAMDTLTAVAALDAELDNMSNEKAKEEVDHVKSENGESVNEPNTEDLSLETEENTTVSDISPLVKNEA
UniProt O14139: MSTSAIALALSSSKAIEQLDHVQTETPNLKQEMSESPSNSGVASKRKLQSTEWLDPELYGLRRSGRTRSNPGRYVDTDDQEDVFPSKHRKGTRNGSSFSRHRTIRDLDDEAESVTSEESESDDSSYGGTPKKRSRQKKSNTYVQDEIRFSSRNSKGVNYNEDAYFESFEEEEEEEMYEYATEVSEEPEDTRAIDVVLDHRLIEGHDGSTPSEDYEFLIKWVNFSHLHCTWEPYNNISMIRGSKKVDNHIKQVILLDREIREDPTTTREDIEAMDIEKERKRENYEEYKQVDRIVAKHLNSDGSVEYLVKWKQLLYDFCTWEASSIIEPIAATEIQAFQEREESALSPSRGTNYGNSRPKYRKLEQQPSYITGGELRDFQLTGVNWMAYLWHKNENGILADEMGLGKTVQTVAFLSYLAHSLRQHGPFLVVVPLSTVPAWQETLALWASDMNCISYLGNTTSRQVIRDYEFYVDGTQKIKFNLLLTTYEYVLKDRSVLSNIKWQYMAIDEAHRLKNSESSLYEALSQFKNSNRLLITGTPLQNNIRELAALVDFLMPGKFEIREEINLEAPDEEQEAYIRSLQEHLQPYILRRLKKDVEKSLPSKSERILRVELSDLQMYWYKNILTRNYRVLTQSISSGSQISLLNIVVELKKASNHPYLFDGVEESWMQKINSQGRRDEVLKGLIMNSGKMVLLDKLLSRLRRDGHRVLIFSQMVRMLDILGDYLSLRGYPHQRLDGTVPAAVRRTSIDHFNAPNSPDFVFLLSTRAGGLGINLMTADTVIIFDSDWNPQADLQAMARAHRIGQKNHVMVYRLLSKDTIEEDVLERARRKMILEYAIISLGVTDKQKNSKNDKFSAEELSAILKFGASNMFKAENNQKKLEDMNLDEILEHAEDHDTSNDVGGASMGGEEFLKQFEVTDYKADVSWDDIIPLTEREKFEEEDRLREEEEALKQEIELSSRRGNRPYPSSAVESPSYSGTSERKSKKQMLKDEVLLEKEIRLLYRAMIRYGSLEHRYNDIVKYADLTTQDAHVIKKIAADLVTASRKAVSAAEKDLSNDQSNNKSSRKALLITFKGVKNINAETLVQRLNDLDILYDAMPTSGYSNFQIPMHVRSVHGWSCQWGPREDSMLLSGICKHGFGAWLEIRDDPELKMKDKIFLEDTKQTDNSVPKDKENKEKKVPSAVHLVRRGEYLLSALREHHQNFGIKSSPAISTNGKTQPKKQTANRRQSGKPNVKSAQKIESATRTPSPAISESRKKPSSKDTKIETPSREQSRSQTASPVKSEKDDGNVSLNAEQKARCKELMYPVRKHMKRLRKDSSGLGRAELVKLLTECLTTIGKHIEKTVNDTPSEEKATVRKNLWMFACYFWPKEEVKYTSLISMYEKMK

Hrp3 (from UniProt O14139 1-1388) was tested, and the binding was “binds”.
